Reference: publication PMC11575784
No constants are given. Whether binding was seen depends on the method and setting. Binding seen in cells or lysates may run through a third protein. Some entries that bind do so weakly or less than the wild type.

The chains behind the UniProt entries cited, without tags or fusion partners.
UniProt P38936: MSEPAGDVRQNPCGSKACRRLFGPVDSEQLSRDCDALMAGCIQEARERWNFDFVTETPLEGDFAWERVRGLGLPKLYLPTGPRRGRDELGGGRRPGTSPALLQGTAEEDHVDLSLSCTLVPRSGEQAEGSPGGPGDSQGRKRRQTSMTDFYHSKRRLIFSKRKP
UniProt P06748: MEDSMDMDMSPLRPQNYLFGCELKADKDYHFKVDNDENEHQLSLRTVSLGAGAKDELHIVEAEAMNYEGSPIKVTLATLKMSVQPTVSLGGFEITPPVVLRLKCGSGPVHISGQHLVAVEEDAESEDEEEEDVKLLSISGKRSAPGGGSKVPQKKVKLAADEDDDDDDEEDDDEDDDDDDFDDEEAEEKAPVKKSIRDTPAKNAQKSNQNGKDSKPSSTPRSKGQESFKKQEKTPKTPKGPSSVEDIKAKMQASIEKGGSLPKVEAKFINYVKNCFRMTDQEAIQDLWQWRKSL

Target: p21 (encoded by the CDKN1A gene) (human (endogenous in HeLa and HCT116)) (UniProt P38936)
Assay: proximity ligation; fixed, permeabilised cells; primary antibodies against NPM1 and p21; cells transfected with siCtrl or siFANCA, with or without actinomycin D overnight; single primary antibodies as negative controls

## nucleolar protein NPM1 (from UniProt P06748 1-294)
  binding: binds
